Laboratory results published in PubChem BioAssay (EPA / NIEHS).
The inconclusive results got no clear call from the source; some entries with a clear call stand among them for comparison. Where the call is inconclusive, the potency comes from a doubtful curve fit. Activity calls are given as the source filed them. The calls were made as follows: active = hit-call score of the fitted dose curve at least 0.9, where 1 is the maximum; inconclusive = response in the unintended direction; inactive = score below 0.9.

By UniProt entry, the sequences of proteins in these tests, tags left out. Where a name states a change or a piece, a line headed by the entry shows the natural chain unless it says otherwise.
UniProt P06401: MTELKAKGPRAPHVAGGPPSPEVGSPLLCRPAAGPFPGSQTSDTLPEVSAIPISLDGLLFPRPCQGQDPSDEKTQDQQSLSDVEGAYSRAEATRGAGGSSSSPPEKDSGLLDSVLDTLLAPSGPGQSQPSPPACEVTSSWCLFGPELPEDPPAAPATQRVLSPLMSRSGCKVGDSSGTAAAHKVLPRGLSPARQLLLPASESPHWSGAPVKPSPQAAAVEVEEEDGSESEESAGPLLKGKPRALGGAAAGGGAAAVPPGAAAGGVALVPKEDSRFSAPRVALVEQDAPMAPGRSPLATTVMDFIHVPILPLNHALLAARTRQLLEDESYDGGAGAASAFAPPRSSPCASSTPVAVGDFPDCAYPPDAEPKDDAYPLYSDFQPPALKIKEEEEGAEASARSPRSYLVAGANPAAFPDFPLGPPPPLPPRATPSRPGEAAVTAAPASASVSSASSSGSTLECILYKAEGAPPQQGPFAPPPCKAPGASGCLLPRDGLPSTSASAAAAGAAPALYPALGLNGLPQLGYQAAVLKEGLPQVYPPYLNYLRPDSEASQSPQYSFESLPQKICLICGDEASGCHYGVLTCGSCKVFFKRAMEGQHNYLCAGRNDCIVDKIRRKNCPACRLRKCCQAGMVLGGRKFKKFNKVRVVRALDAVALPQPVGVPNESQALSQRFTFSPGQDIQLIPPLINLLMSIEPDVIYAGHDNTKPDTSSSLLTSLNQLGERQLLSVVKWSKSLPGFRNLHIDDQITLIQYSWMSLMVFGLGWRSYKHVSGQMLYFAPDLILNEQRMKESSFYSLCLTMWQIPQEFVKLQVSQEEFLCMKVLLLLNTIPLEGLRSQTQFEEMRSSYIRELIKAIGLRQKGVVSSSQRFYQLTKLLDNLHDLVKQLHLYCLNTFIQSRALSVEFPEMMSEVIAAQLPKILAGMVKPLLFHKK

Tested on: Sodium/Iodide Symporter (NIS), SLC5A5 (gene 6528)
Assay: CPHEA_Stoker_NIS_Inhibition_RAIU: CPHEA's Radioactive Iodide Uptake (RAIU) Assay for Sodium/Iodide Symporter (NIS) Inhibition, Stoker and Laws Labs (AID 2283841)
In short: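 hNIS-HEK293T-EPA cells incubated 2 h at room temperature with compound (0.001–100 uM, 0.5% DMSO) and 329 pM final 125I in HBSS/10 mM HEPES, pH 7.4. Intracellular 125I counted; normalised to DMSO maximal uptake, triplicate, three biological replicates.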

Row | Compound | AC50 | outcome
1 | CN(C)C(=O)NC1(c2ccccc2)CCN(CCC[C@]2(c3ccc(Cl)c(Cl)c3)CCCN(C(=O)c3ccccc3)C2)CC1 | inconclusive: 5.55e-05 µM | 
2 | CCc1cc(Cc2cc(CC)c(N)c(CC)c2)cc(CC)c1N | active: 20 µM | 
3 | CCCCCCCCn1sc(Cl)c(Cl)c1=O | active: 9.92 µM | 
4 | c1ccc2cc3c(ccc4ccccc43)cc2c1 | active: 50 µM | 
5 | CCc1nc(N)nc(N)c1-c1ccc(Cl)cc1 | inconclusive: 0.000442 µM | 
6 | CN1CCN(c2ccccc2/C=C2\SCCN(c3ccc(Cl)c(Cl)c3)C2=O)CC1 | inconclusive: 0.000115 µM | 
7 | NCCN | active: 4.18 µM | 
8 | Cc1ccc(C)c(C)c1 | inconclusive: 50 µM | 
9 | CCCCc1oc2ccccc2c1C(=O)c1cc(I)c(OCCN(CC)CC)c(I)c1 | inconclusive: 0.00044 µM | 
10 | CCc1c(C(=O)NN2CCCCC2)nn(-c2ccc(Cl)cc2Cl)c1-c1ccc(Br)cc1 | inconclusive: 0.000204 µM | 
11 | CCCCCCCCCCCCCCCCOS(=O)(=O)O | inconclusive: 0.000176 µM | 
12 | Cc1nccn1-c1ccc(Sc2cccc(C3(C(N)=O)CCOCC3)c2)cc1 |  | inactive
13 | CCCCCCCCCCCCOCCOS(=O)(=O)O | active: 9.92 µM | 
14 | CCC(C)N(C)C(=O)c1cc2ccccc2c(-c2ccccc2Cl)n1 (stereo unspecified) | active: 30 µM | 
15 | Oc1ccc(Cl)cc1Cc1cc(Cl)ccc1O | active: 9.92 µM | 
16 | CCN(Cc1cccnc1)C(=O)c1cccc(Cl)c1[C@]1(C)C(=O)N(Cc2ccc(OC)cc2OC)c2ccc(Cl)cc21 | inconclusive: 0.000901 µM | 

Molecular target: PGR (gene 5241) (UniProt P06401)
Assay: TOX21_PR_LUC_Followup_Antagonist: Tox21 HEK293 Progesterone Receptor (PR) Antagonism Luciferase Follow-Up Assay (AID 2283938);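 also: curve fitted upward as signal gain over DMSO baseline despite antagonist label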
In short: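 HEK293-PR-A-luc cells were precultured 5 days in medium with 10% charcoal-stripped FBS, seeded 3,000/well, then exposed to compounds in DMSO for 16 h at 37C. Luciferase was read by ONE-Glo luminescence after 30 min at room temperature.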

Row | Compound | outcome | AC50
17 | CC(=O)[C@H]1[C@H](C#N)C[C@H]2[C@@H]3CC=C4C[C@@H](O)CC[C@]4(C)[C@H]3CC[C@@]21C | inactive | 
18 | c1ccc2cc3c(ccc4ccccc43)cc2c1 |  | inconclusive: 11.2 µM
19 | Oc1ccc2ccccc2c1N=Nc1ccccc1 |  | inconclusive: 13.5 µM

Tested on: not listed separately
Assay: TOX21_PR_LUC_Followup_Antagonist_viability: Viability Assessment in the Tox21 HEK293 Progesterone Receptor (PR) Antagonism Luciferase Follow-Up Assay (AID 2283940)
In short: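 Viability counter-readout: cellular ATP measured by luciferase luminescence after 16 h compound exposure at 37C of HEK293-PR-A-luc cells, which had been cultured in charcoal-stripped serum and seeded 5 h beforehand.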

Row | Compound | AC50 | outcome
20 | CC(=O)[C@H]1[C@H](C#N)C[C@H]2[C@@H]3CC=C4C[C@@H](O)CC[C@]4(C)[C@H]3CC[C@@]21C | inconclusive: 27.6 µM | 
21 | c1ccc2cc3c(ccc4ccccc43)cc2c1 | inconclusive: 46.1 µM | 
22 | CCOc1ccc2c(c1)C(C)=CC(C)(C)N2 | inconclusive: 23 µM | 
23 | c1ccc2c(c1)[nH]c1ccccc12 |  | inactive
24 | C[C@]12C[C@H](O)[C@H]3[C@@H](CCC4=CC(=O)CC[C@@]43C)[C@@H]1CC[C@@H]2C(=O)CO | inconclusive: 46.1 µM | 
25 | C[C@]12CC[C@@H]3c4ccc(O)cc4C[C@@H](CCCCCCCCCS(=O)CCCC(F)(F)C(F)(F)F)[C@H]3[C@@H]1CC[C@@H]2O (stereo partly specified) |  | inactive
26 | Nc1ccc(C(=O)OCCCOC(=O)c2ccc(N)cc2)cc1 | inconclusive: 0.321 µM | 
